The whole screen tested about 31,000 sequences, of which about 1,400 (4.5%) were called active.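 The calls were made as follows: active = median seed-adjusted z-score above 1 or below -1; inactive = the rest.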 Some of the results follow.

The test in a line: Novel Modifiers of Survival Motor Neuron (SMN) Protein: Gene Identification via Genome-wide siRNA Screen.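 Also: luminescence tracks full-length SMN protein made from the SMN2 reporter.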 The conditions noted are these: HEK293T SMN2-luciferase reporter, siRNA knockdown, 72 h; actives lie on both sides. The method, boiled down:
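Genome-wide siRNA screen (10418 genes, 3 siRNAs each, 1 pmol per well) by reverse transfection in HEK293T cells stably carrying an SMN2-luciferase reporter; luminescence after 72 hours, normalized to negative-control siRNA, log10-transformed, MAD-scored.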
For orientation: A reporter such as luciferase makes a cellular process visible.
With GGAUUACUGCAUUAAACGATT against BUB1B, the median seed-adjusted z-score was inactive: -0.579.
As to GUGACGUACAAAAACCUUATT against ARL1, the median seed-adjusted z-score was inactive: 0.347.
As for ACCAAGAGUUCGCAUCUGATT against KLF2, the median seed-adjusted z-score is inactive: 0.359.
Regarding CCCUAACCCGUUUCCCGAATT against KIFC2, the median seed-adjusted z-score is inactive: 0.932.
In the case of CUAUGCUACUGUACCAGAATT against CSRP2BP it was inactive: -0.526; in that of GCGAGGGCCUUUUUGAGUATT against CRYAA, active: -1.03.
Regarding CCUUAAGUGCUCUUACUGATT against BNIP1, the median seed-adjusted z-score is inactive: 0.259.
For GUCCUACAUUGAAUGCAAUTT against NR1I2 the value was inactive: -0.922; for GAGGUUUUAUAUAACCGAUTT against SMC6, inactive: 0.227; for GGACUUGGUCUUACAACUATT against PLK4, inactive: -0.0888.
Regarding GAGUAGCAGGAAAAACGAATT against SNX13, the median seed-adjusted z-score is inactive: 0.253.
Regarding GAAUCACCAGCUAAACUAUTT against STARD6, the median seed-adjusted z-score is inactive: 0.0605.
Consider GGACAAAGCAUUGACAAUUTT against KCNJ13, for which the median seed-adjusted z-score was inactive: 0.327.
As for GAAGAAGCUUUGCUCCUGATT against VNN3, the median seed-adjusted z-score was inactive: 0.343.
For CAGCUGCGGGAGAUAAUGATT against ANXA8L2, the median seed-adjusted z-score was inactive: -0.147.
Take GGAGACUGAUAUACACUUATT against GDPD4: the median seed-adjusted z-score was inactive: 0.0109.
Regarding GCCUUUUGGAGGUUCAUAATT against BAI2, the median seed-adjusted z-score was inactive: -0.114.
As for CCCAGUUUCUAGUCUGCUATT against SHKBP1, the median seed-adjusted z-score was inactive: 0.345.
In the case of GGAAAAUCUUAAACGGCUATT against PIK3AP1, the median seed-adjusted z-score is inactive: 0.0678.
With GGAUGUACUCUGUUUAUUATT against RBM19, the median seed-adjusted z-score is inactive: 0.204.
Consider ACACCAUGAUGAAGACUCATT against IRAK2, for which the median seed-adjusted z-score is inactive: -0.06.
CCACUACUGGAAUUCGGAATT against EP300: the median seed-adjusted z-score was inactive: -0.2.
On to GUCUCUCAGGUAAUCCUUATT against SYT11, for which the median seed-adjusted z-score is inactive: 0.29.
Take CCAUGGACGAGGAACAGGUTT against TESC: the median seed-adjusted z-score is inactive: -0.17.
In the case of GUACAAGAGAUAAUGCAAATT against TFPI it was inactive: -0.0076.
With CGCAUGGACUUACACCAAUTT against KCNH7, the median seed-adjusted z-score was inactive: 0.0639.
As for GGAGACAAAUUCUUCCUGATT against LMO1, the median seed-adjusted z-score is inactive: 0.104.
Take GGGCGAGUAUGACCGAUCATT against CTRL: the median seed-adjusted z-score is inactive: 0.0758.
As for GAGACUAAAUCACAACAAATT against KERA, the median seed-adjusted z-score was inactive: 0.238.
For CCAGCUAUUUUUAAGAGUUTT against CHRNA6 the value was inactive: 0.21; for AGAGGACAUUAGGACUUCATT against ZMYND12, inactive: 0.0551.
In the case of CAUUAGGAGUGUGCACAUUTT against SLC22A4, the median seed-adjusted z-score was inactive: -0.474.
Turning to GCACAUGUCAGACAUGGUATT against HDC, the median seed-adjusted z-score is inactive: -0.0146.
Take UCAUUGCAAAGUUCCUUAATT against NAIP: the median seed-adjusted z-score was inactive: -0.172.
In the case of AGGAGGUAGAUGAAUCCAATT against PPP1R9B it was inactive: -0.244; in that of GCAGGAAAAUGGUUCCUCATT against MKL1, inactive: -0.138; in that of CGAGAUUUUGUAGAGCACATT against PCK2, inactive: 0.318.
GGAUUAGAACAAUAUCUCATT against UBR2: the median seed-adjusted z-score was inactive: 0.632.
As for GGAUCCACAUCGGAGAAAATT against ZNF629, the median seed-adjusted z-score is inactive: 0.0602.
In the case of GAAAUUUCAUCUCAAGGAUTT against GTF2A1 it was inactive: -0.0209; in that of AGACCAUUGUUUCAGACCATT against SHROOM1, inactive: 0.0461.
Turning to AGGAGGAUGCGAAACCCAATT against ACCN4, the median seed-adjusted z-score is inactive: -0.512.
GAGAGGAUUGUGACCAUCATT against PCBP3: the median seed-adjusted z-score was inactive: -0.0373.
For GAAUGGAUCUUACUAAGGUTT against OSBPL9 the value was inactive: -0.958; for GACGUGUACUUUGUCAACATT against GPR146, inactive: 0.405.
Consider CCAUAAACAGUACUACGAATT against ITIH1, for which the median seed-adjusted z-score is inactive: 0.0403.
Regarding GGAGAAGAGCAACACCAUUTT against ZNF23, the median seed-adjusted z-score was inactive: -0.106.
GGAAUGCAAGAGUCAUGAATT against ZNF473: the median seed-adjusted z-score was inactive: -0.166.
With GCAUGUAUCUGCUUGAUAUTT against ODC1, the median seed-adjusted z-score was active: -1.64.
On to GAGUGAUAUGGAUAGUGAATT against TTC18, for which the median seed-adjusted z-score is active: -1.15.
For the sequence GCAUCAUCCACUCAAUUUUTT against ANTXR1, the median seed-adjusted z-score is inactive: -0.0849.
For the sequence UGGAAAACCUAAUCACCUATT against PGLYRP4, the median seed-adjusted z-score is inactive: 0.13.
As to GCUACCUUCUGAUGUUGUATT against OAT, the median seed-adjusted z-score was inactive: -0.0231.
In the case of CACCUACUGAUGACUCAAATT against ACY1, the median seed-adjusted z-score is inactive: -0.153.
As to AAACGGAGGCGGUACGAGATT against SYT5, the median seed-adjusted z-score is inactive: 0.704.
On to GAACCCGUGUAUCAGCUGATT against ANGPTL6, for which the median seed-adjusted z-score is inactive: 0.
For the sequence GAUGAUUCGUUGGUAUCUATT against GRIA2, the median seed-adjusted z-score was active: -1.02.
Take GCAUGAACACUGACAUGGUTT against POGK: the median seed-adjusted z-score was inactive: 0.938.
Consider GCAAGAACCUGGUGCGCAATT against LRRC4B, for which the median seed-adjusted z-score was inactive: 0.288.
In the case of CGGUUAGGCUGUGAGGAAATT against PDPK1 it was inactive: 0.0807; in that of GAAGCUUACAGAUUCGAUATT against CNTNAP2, inactive: -0.196.
Take GUCUAUGAAUUGGACAAGATT against PGAM1: the median seed-adjusted z-score was inactive: -0.234.
With GGAAGUAUCAGAUCUUGAATT against CYFIP2, the median seed-adjusted z-score is inactive: -0.322.
In the case of GAGUUUAAGCGCAAGCAUATT against HSPA8 it was inactive: 0.462; in that of GCUCUGUCACUGAAUACAATT against MPI, inactive: -0.526.
With CGUCAAAAUCAGGACUGAATT against TAF9, the median seed-adjusted z-score is inactive: 0.829.
GGCCUACCGUAAGAAUGCATT against PHKA2: the median seed-adjusted z-score is inactive: 0.304.
As to GCAACCUUAUAAUAACGGUTT against RELN, the median seed-adjusted z-score was inactive: 0.207.
In the case of CAUCUUAAGUGUUUUACAUTT against LMO4, the median seed-adjusted z-score is inactive: -0.067.
In the case of GGACUUACCUUCAACCAAUTT against RSF1 it was inactive: 0; in that of GGAUCCUGUAAAUCCCUAUTT against MEST, inactive: -0.0503.
On to CCAAAAUGUUUCAUCCAAATT against UBE2B, for which the median seed-adjusted z-score is inactive: 0.333.
As for AAGUAAAUCUGUAAACAGATT against CYP3A5, the median seed-adjusted z-score is inactive: 0.0516.
On to CAACAUCUCCGAGGGCGAATT against SEZ6L2, for which the median seed-adjusted z-score is inactive: -0.331.
As for GGUGAAGGAUAUAGCAAUATT against RYK, the median seed-adjusted z-score is inactive: -0.446.
For GUAUAGACAUGAUUGACAATT against ARNTL the value was inactive: 0.0838; for CCGCAGUGAUCAACAAAGATT against ZFPM1, inactive: -0.925.
Consider CAGAUACUUUAGGACUCAATT against UGT2B4, for which the median seed-adjusted z-score is inactive: 0.0707.
Take CUCUAUAGCUUUUACUUCUTT against CNGA4: the median seed-adjusted z-score was inactive: 0.125.
In the case of GCUUAGCGGUGAAGAAGCATT against STK33 it was inactive: -0.168; in that of GCUCCUCGUUUGUAGAAGATT against SLIT3, inactive: -0.453; in that of AGCUUUUGAAGGUAAUUAATT against EMG1, inactive: -0.0627.
For GGCUUCACCUAAAAACGUATT against BRCA2, the median seed-adjusted z-score is inactive: 0.
Turning to CACCGGAUGUGGAGAACUATT against MYOC, the median seed-adjusted z-score was inactive: 0.764.
For the sequence GAGUCUAAAUCCUCCAGUUTT against DUSP27, the median seed-adjusted z-score was inactive: -0.162.
On to GCAUAUGCCCUGUUUUUCATT against TOX3, for which the median seed-adjusted z-score was inactive: -0.216.
On to CGUUCCGACAGAUCAAGGATT against DPP7, for which the median seed-adjusted z-score is inactive: -0.217.
In the case of CCAAAACCGUCGCAUGAAATT against HOXC4 it was inactive: -0.0114; in that of GCAUCUUGAUCCUCCUGUATT against NRXN3, inactive: 0.897.
Regarding UCCUAAAUGUGACCCGGUATT against ZMYND19, the median seed-adjusted z-score is inactive: 0.369.
Take GCGCGAUAACCUCCUCAUATT against ZAP70: the median seed-adjusted z-score is inactive: -0.674.
In the case of CCUCAUUUACUGUCCAACUTT against EFCAB4B, the median seed-adjusted z-score was inactive: 0.
In the case of CACUAAACGAGGAUUCCUATT against YWHAH, the median seed-adjusted z-score is inactive: -0.125.
In the case of GCUUAAUCCUGAUUAUCGATT against ITPR2, the median seed-adjusted z-score is inactive: 0.
Turning to CAUAGACUCUUACACCACATT against SC4MOL, the median seed-adjusted z-score is inactive: -0.0194.
For the sequence GUGCUGUACGUGUUGCUGCTT against NPBWR1, the median seed-adjusted z-score is inactive: 0.344.
For GAAAUACGCAGAUGACAAATT against MCM8, the median seed-adjusted z-score was inactive: 0.279.
Consider GGCCGAAUGUUUGCACCAATT against RPL4, for which the median seed-adjusted z-score was inactive: 0.573.
As to GAACUGUGCUCAGACCUCUTT against HSPA6, the median seed-adjusted z-score is inactive: 0.364.
As for CGUUACCUUUUAAGCUUGATT against SOCS6, the median seed-adjusted z-score is inactive: 0.359.
On to GGACAGUAGUAGCUACAGUTT against PCDH7, for which the median seed-adjusted z-score is inactive: 0.192.
Regarding GGGUUAGACGGAUACAAGATT against LILRA2, the median seed-adjusted z-score is inactive: -0.103.
In the case of AGAUCUCCAUGGUCAGGAUTT against ACCN4 it was inactive: -0.512; in that of GGAUGUCUGGUUCUCGUAATT against KLHL5, inactive: 0.48.
As for GACAGUUCGUGAUGCUAUATT against PDHB, the median seed-adjusted z-score was inactive: -0.478.
For the sequence CGGUACUCAUCAUCGCGCATT against ABCB9, the median seed-adjusted z-score is inactive: 0.151.
Regarding GGAGCUUCAGGUUGUCCGATT against RPUSD3, the median seed-adjusted z-score was inactive: 0.303.
As for GGAUCGAAUUUUUGGAACATT against SC4MOL, the median seed-adjusted z-score is inactive: -0.0194.

The values are drawn from PubChem BioAssay AID1347426 (Functional Genomics Laboratory (NCATS/FGL), 2020).
